# The supplement of paper PMC8728848
# The list shows a part of the results.
# B1: RetS (Pseudomonas aeruginosa), Q9HUV7 (protein)
# chain: MVRLRIAIGLLVSFLLLLLGPMSPAVADDAGVSSVPLQTTATTPSANQNWRLLRDESAQLRIADVLQRKEQFRPLAKRSFIFPASPQAVWLQVQLPAQKVPSWLWIFAPRVQYLDYYLVQDGQLVRDQHTGESRPFQERPLPSRSYLFSLPVDGKPMTLYVRMTSNHPLMAWFDQIDEAGLVGLEKPAYAFGMLLGGMLLLLMYNLIRFAYSRSASSLWLAAVHAALAVCAAANLGLVAFWLPGLKFNQSLTADLGALGAAVSLLWFACSFFRGTAESRLNRLLQGEALLILAVGAIIAFTQQLWFSWLIYLLVILSSLSVPLIAAWHWYRGYQPARLIVAGMIVFNAGFMVFLPVLFGTKQLDPGWLVLGVFSFATLAGLVLSVSLTERQRLIQQLNLQQRTSEAAHTAELQTKAEFLAKISHEIRTPMNGVLGMTELLLGTPLSAKQRDYVQTIHSAGNELLTLINEILDISKLESGQIELDEVQFDLNALIEDCLDIFRVKAEQQRIELISFTQPQVPRVIGGDPTRLRQVVLSLLDNAFKQTEEGEILLVVALDDQGETPRLRIAVQDSGHPFDAKEREALLTAELHSGDFLSASKLGSHLGLIIARQLVRLMGGEFGIQSGSSQGTTLSLTLPLDPQQLENPTADLDGPLQGARLLVVDDNETCRKVLVQQCSGWGLNVSAVSSGKEALAQLRTKAHLREYFDVVLLDQDMPGMTGMQLAAKIKEDPNLNHDILLIMLTGISNAPSKIIARNAGIKRILAKPVAGYTLKATLADELAQRGVSGVTNYLQPAKEAQAPSLPSDFRILVAEDNSISTKVIRGMLNKLNLQPDTASNGQEALSAMKATQYDLVLMDCEMPVLDGFSATEQLRAWEAHEQRPHTPVVALTAHILSEHKERARLVGMDGHMAKPVELSQLRELIAYWVGERDRRRQGDALPS
# What was measured:
# Test in all cases: glycan array binding signal (z-score within array); higher = stronger binding
# Settings in all cases: glycan notation: IUPAC condensed, linker removed
# [1] = target: Neu5Ac(a2-3)Gal(b1-4)GlcNAc(b1-3)Gal
# Outline: (§1)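 Negative Z-scores can be read as non-binding. The Z-score is calculated within each array and then averaged across arrays of one protein sequence at different concentrations or buffers and across linkers. Arrays, 3228 in all, were curated from the Consortium for Functional Glycomics database and kept only where the protein sequence was available.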
# [2] = target: Neu5Ac(a2-3)Gal(b1-4)GlcNAc(b1-3)Gal(b1-3)GlcNAc
# Outline: as §1
# [3] = target: Neu5Ac(a2-3)Gal(b1-4)GlcNAc(b1-3)Gal(b1-4)GlcNAc
# Outline: as §1
# [4] = target: Neu5Ac(a2-3)Gal(b1-4)GlcNAc(b1-3)Gal(b1-4)GlcNAc(b1-3)Gal(b1-4)GlcNAc
# Outline: as §1
# [5] = target: Neu5Ac(a2-3)Gal(b1-4)GlcNAc(b1-3)Gal(b1-4)[Fuc(a1-3)]GlcNAc
# Outline: as §1
# [6] = target: Neu5Ac(a2-3)Gal(b1-4)GlcNAc(b1-3)GalNAc
# Outline: as §1
# [7] = target: Neu5Ac(a2-3)Gal(b1-4)GlcNAc(b1-6)[Gal(b1-3)]GalNAc
# Outline: as §1
# [8] = target: Neu5Ac(a2-3)Gal(b1-4)GlcNAc(b1-6)[Neu5Ac(a2-3)Gal(b1-3)]GalNAc
# Outline: as §1
# [9] = target: Neu5Ac(a2-3)Gal(b1-4)GlcNAc6S
# Outline: as §1
# [10] = target: Neu5Ac(a2-3)Gal(b1-4)[Fuc(a1-3)]GlcNAc
# Outline: as §1
# [11] = target: Neu5Ac(a2-3)Gal(b1-4)[Fuc(a1-3)]GlcNAc(b1-3)Gal
# Outline: as §1
# [12] = target: Neu5Ac(a2-3)Gal(b1-4)[Fuc(a1-3)]GlcNAc(b1-3)Gal(b1-4)GlcNAc
# Outline: as §1
# [13] = target: Neu5Ac(a2-3)Gal(b1-4)[Fuc(a1-3)]GlcNAc(b1-3)Gal(b1-4)[Fuc(a1-3)]GlcNAc(b1-3)Gal(b1-4)[Fuc(a1-3)]GlcNAc
# Outline: as §1
# [14] = target: Neu5Ac(a2-3)Gal(b1-4)[Fuc(a1-3)]GlcNAc(b1-3)GalNAc
# Outline: as §1
# [15] = target: Neu5Ac(a2-3)Gal(b1-4)[Fuc(a1-3)]GlcNAc(b1-6)[Gal(b1-3)]GalNAc
# Outline: as §1
# [16] = target: Neu5Ac(a2-3)Gal(b1-4)[Fuc(a1-3)]GlcNAc6S
# Outline: as §1
# [17] = target: Neu5Ac(a2-3)Gal6S(b1-4)GlcNAc
# Outline: as §1
# [18] = target: Neu5Ac(a2-3)Gal6S(b1-4)[Fuc(a1-3)]GlcNAc
# Outline: as §1
# Neu5Ac(a2-3)GalNAc = target: Neu5Ac(a2-3)GalNAc
# Outline: as §1
# [19] = target: Neu5Ac(a2-3)GalNAc(b1-4)GlcNAc
# Outline: as §1
# [20] = target: Neu5Ac(a2-3)[GalNAc(b1-4)]Gal(b1-4)Glc
# Outline: as §1
# [21] = target: Neu5Ac(a2-3)[GalNAc(b1-4)]Gal(b1-4)GlcNAc
# Outline: as §1
# [22] = target: Neu5Ac(a2-3)[GalNAc(b1-4)]Gal(b1-4)GlcNAc(b1-3)GalNAc
# Outline: as §1
# [23] = target: Neu5Ac(a2-3)[Neu5Ac(a2-6)]GalNAc
# Outline: as §1
# Neu5Ac(a2-6)Gal = target: Neu5Ac(a2-6)Gal
# Outline: as §1
# [24] = target: Neu5Ac(a2-6)Gal(b1-3)GlcNAc(b1-3)[Gal(b1-4)GlcNAc(b1-6)]Gal(b1-4)Glc
# Outline: as §1
# Neu5Ac(a2-6)Gal(b1-4)Glc = target: Neu5Ac(a2-6)Gal(b1-4)Glc
# Outline: as §1
# [25] = target: Neu5Ac(a2-6)Gal(b1-4)GlcNAc
# Outline: as §1
# [26] = target: Neu5Ac(a2-6)Gal(b1-4)GlcNAc(b1-2)Man(a1-3)Man(b1-4)GlcNAc(b1-4)GlcNAc
# Outline: as §1
# [27] = target: Neu5Ac(a2-6)Gal(b1-4)GlcNAc(b1-2)Man(a1-3)[Gal(b1-4)GlcNAc(b1-2)Man(a1-6)]Man(b1-4)GlcNAc(b1-4)GlcNAc
# Outline: as §1
binder,measurement,setting,value
B1,glycan array binding signal (z-score),[1],0.901
same,glycan array binding signal (z-score),[2],1.12
same,glycan array binding signal (z-score),[3],-0.976
same,glycan array binding signal (z-score),[4],0.517
same,glycan array binding signal (z-score),[5],-0.543
same,glycan array binding signal (z-score),[6],-0.324
same,glycan array binding signal (z-score),[7],-0.343
same,glycan array binding signal (z-score),[8],-0.192
same,glycan array binding signal (z-score),[9],-0.058
same,glycan array binding signal (z-score),[10],0.567
same,glycan array binding signal (z-score),[11],-0.075
same,glycan array binding signal (z-score),[12],1.76
same,glycan array binding signal (z-score),[13],-0.029
same,glycan array binding signal (z-score),[14],3.56
same,glycan array binding signal (z-score),[15],-0.268
same,glycan array binding signal (z-score),[16],0.709
same,glycan array binding signal (z-score),[17],0.813
same,glycan array binding signal (z-score),[18],-0.246
same,glycan array binding signal (z-score),Neu5Ac(a2-3)GalNAc,-0.712
same,glycan array binding signal (z-score),[19],-0.684
same,glycan array binding signal (z-score),[20],0.059
same,glycan array binding signal (z-score),[21],0.328
same,glycan array binding signal (z-score),[22],-0.812
same,glycan array binding signal (z-score),[23],0.446
same,glycan array binding signal (z-score),Neu5Ac(a2-6)Gal,-0.536
same,glycan array binding signal (z-score),[24],0.956
same,glycan array binding signal (z-score),Neu5Ac(a2-6)Gal(b1-4)Glc,0.109
same,glycan array binding signal (z-score),[25],-0.56
same,glycan array binding signal (z-score),[26],-0.075
same,glycan array binding signal (z-score),[27],0.76

# An excerpt of these results, with tabs:
binder	measurement	setting	value
B1	glycan array binding signal (z-score)	[8]	-0.192
same	glycan array binding signal (z-score)	[15]	-0.268
same	glycan array binding signal (z-score)	[17]	0.813
same	glycan array binding signal (z-score)	[22]	-0.812
same	glycan array binding signal (z-score)	Neu5Ac(a2-6)Gal	-0.536
same	glycan array binding signal (z-score)	[25]	-0.56
same	glycan array binding signal (z-score)	[26]	-0.075
